This is one part of the list. Shown are side measurements of this screen, not its main read-out; they come without a call. Most of these compounds were active or inconclusive in the main read-out, so they are no random draw. Words in brackets tell the shape of the fitted curve; partial curves, single points and poor fits give uncertain potencies.
Experiment: qHTS Assay to Find Inhibitors of Chronic Active B-Cell Receptor Signaling
Settings: ABC-DLBCL IkBa-CBG/CBR reporter, luminescence ratio (green luciferase fused to IkBa over red control in TMD8 lymphoma cells), 4 h
Procedure, shortened: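 Concentration-response series (up to 46 uM) were applied to TMD8 dual-reporter cells for 4 h at 37C with doxycycline. Green/red ratio, after filter-overlap correction, defined %Activity; red signal alone was normalised to basal cells and zero luminescence.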

[1] = measured here: CBR red luminescence, cell number
[2] = measured here: IkBa-CBG green luminescence

| SMILES | AC50 [1] | AC50 [2] |
| --- | --- | --- |
| Brc1cccc2sc(N3CCCC3)nc12 | 11.2 µM [rising, single point] | – |
| CC(=O)Oc1ccc(C(=O)Nc2ccccc2NC(=O)c2ccc(OC(C)=O)cc2)cc1 | 4.47 µM [falling, partial curve] | – |
| O=C(CN1C(=O)c2cccnc2Oc2ccc(Cl)cc21)NCCCc1ccccc1 | 2.82 µM [falling, partial curve, poor fit] | – |
| CCN(CC)C(=O)Cn1nc(C)c2ccccc2c1=O | 29.1 µM [rising, single point] | – |
| Cc1nc2ccc(NC(=S)NC3CCCCC3)cc2nc1C | 4.47 µM [falling, partial curve, poor fit] | – |
| CCCSc1nc(C)c2cc(C)cc(C)c2n1 | 4.11 µM [rising, full curve] | – |
| CC(=O)Oc1ccc2c(c1)C(=O)c1ccccc1C2=O | 0.794 µM [rising, full curve, poor fit] | – |
| Cc1nc2c(oc3ccccc32)c(=O)o1 | 3.98 µM [falling, partial curve] | – |
| CN(CC(=O)Nc1cccc(F)c1)C(=O)CCNC(=O)c1ccco1 | 3.26 µM [rising, full curve, poor fit] | – |
| COc1ccc(C(CNC(=O)c2ccc3c(c2)OCCO3)N(C)C)cc1 (stereo not given) | 17.8 µM [falling, partial curve, poor fit] | – |
| O=C(Cn1c(=O)c2cccn2c2ccccc21)Nc1ccc(F)cc1F | 25.1 µM [falling, single point] | – |
| O=C(O)/C=C/C(=O)Nc1ccc(Cl)cc1C(=O)c1ccccc1 | – | 11.2 µM [rising, partial curve, poor fit] |
| Cc1cccc2cc3c(nc12)SC(=NCC1CCCO1)N(Cc1ccco1)C3 (stereo not given) | 2.51 µM [falling, full curve, poor fit] | 12.6 µM [falling, partial curve, poor fit] |
| Nc1c(S(=O)(=O)c2cccs2)c2nc3ccccc3nc2n1/N=C/c1cccc(O)c1 | 10 µM [falling, partial curve, poor fit] | 12.6 µM [rising, partial curve, poor fit] |
| COc1ccc(C2=NN(c3nc(C(=O)O)cs3)C(O)(C(F)(F)F)C2)c(OC)c1 (stereo not given) | 2.51 µM [rising, full curve] | – |
| COc1ccc(N2CCN(C3CCCN(C(=O)c4cccc(C)n4)C3)CC2)cc1 (stereo not given) | 8.91 µM [rising, partial curve, poor fit] | – |
| CC1SCC(NC(=O)c2cccc(Cl)c2)CS1 (stereo not given) | 11.2 µM [rising, partial curve] | – |
| O=C(CN(c1cccc(C(F)(F)F)c1)S(=O)(=O)c1ccc(Cl)c([N+](=O)[O-])c1)NCc1ccc(F)cc1 | 16.4 µM [falling, partial curve] | 14.6 µM [rising, partial curve, poor fit] |
| O=[N+]([O-])c1ccc(Cl)c(S(=O)(=O)n2ccnc2)c1 | 7.94 µM [falling, partial curve] | – |
| CCOC(=O)C1CCN(C(=O)CN2C(=O)c3ccccc3S2(=O)=O)CC1 | 3.26 µM [rising, partial curve, poor fit] | – |

| SMILES | AC50 [1] | AC50 [2] |
| --- | --- | --- |
| CC1CCN(CC(=O)Nc2ccc(Cl)cc2[N+](=O)[O-])CC1 | 25.1 µM [rising, single point] | – |
| CN(C)c1ccc(/C=N/NC(=O)CCCCCNC(=O)c2ccccc2)cc1 | 11.2 µM [falling, partial curve] | – |
| CCCS(=O)(=O)N1CCCC(C(=O)NCCc2ccccc2)C1 (stereo not given) | 6.31 µM [rising, single point] | – |
| O=C(Nc1ccc(Cl)cc1C(F)(F)F)C(Sc1cccc[n+]1[O-])c1ccccc1 (stereo not given) | 35.5 µM [falling, single point] | 35.5 µM [falling, single point] |
| C/C(=C\c1ccccc1)C(=O)NCCCn1ccnc1 | 1.78 µM [rising, full curve, poor fit] | – |
| CC1(C)CC(=O)C(N=Nc2cccc([N+](=O)[O-])c2)=C(O)C1 | 10 µM [falling, partial curve, poor fit] | – |
| CCOc1ccccc1-n1c(CN2CCN(C(=O)c3ccco3)CC2)nc2ccccc2c1=O | 29.1 µM [falling, single point] | 20.6 µM [rising, partial curve, poor fit] |
| Cc1cc(C)n(-c2ncc(-c3ccccc3)nn2)n1 | 29.1 µM [falling, single point] | – |
| Cc1cc([N+](=O)[O-])ccc1NC(=S)NC(=O)C(c1ccccc1)c1ccccc1 | 0.517 µM [falling, full curve, poor fit] | – |
| CCn1c(Sc2ccc([N+](=O)[O-])cn2)nnc1-c1ccco1 | – | 20 µM [falling, single point] |
| CCc1nc(Nc2ccc(O)cc2)c2oc3ccccc3c2n1 | 11.2 µM [falling, partial curve, poor fit] | – |
| Cc1coc2cc3oc(=O)c(CCC(=O)NCc4ccccn4)c(C)c3cc12 | 6.31 µM [rising, single point] | – |
| Cc1cccc(C(=O)NNC(=O)c2ccccc2Br)c1 | 3.98 µM [falling, full curve] | – |
| O=C(O)CCC(NS(=O)(=O)c1ccc(-c2ccccc2)cc1)C(=O)O (stereo not given) | 0.0326 µM [falling, full curve, poor fit] | – |
| O=C1C=C(Nc2cccc(O)c2)CC(c2ccco2)C1 (stereo not given) | 4.61 µM [falling, full curve] | – |
| C=CCOC(=O)c1ccc(N2CCN(c3ccccc3)CC2)nc1 | 0.355 µM [rising, partial curve, poor fit] | – |
| COc1cc(C(=O)NC(=S)Nc2csc(-c3ccc(F)cc3)n2)cc(OC)c1OC | 12.6 µM [rising, single point] | – |
| Cc1cccc(-c2nc(Nc3ccc(N4CCOCC4)cc3)c3ccccc3n2)c1 | 29.1 µM [falling, single point] | – |
| CC[C@]12c3[nH]c4cc(CCC(=O)N(C)C)ccc4c3CCN1C(=O)[C@@H](CC(=O)NCCC1=CCCCC1)C[C@@H]2C(=O)N1CCN(C(=O)c2ccco2)CC1 | 18.4 µM [rising, single point] | 20.6 µM [falling, single point] |

An excerpt of these results, as tab-separated lines:
SMILES	AC50 [1]	AC50 [2]
CCn1c(Sc2ccc([N+](=O)[O-])cn2)nnc1-c1ccco1	–	20 µM [falling, single point]
CCc1nc(Nc2ccc(O)cc2)c2oc3ccccc3c2n1	11.2 µM [falling, partial curve, poor fit]	–
